From PubChem BioAssay AID504467 (National Center for Advancing Translational Sciences (NCATS), 2011)
The whole screen tested about 330,000 compounds, of which about 7,700 (2.3%) were called active. Inconclusive means that the source gave no clear call. Such entries were picked first, then a sample of the others. The call rests on the fitted dose curve; in most records, active means well fitted inhibition curve with a large enough effect; inconclusive means small, poorly fitted or top-dose-only effect, or effect the other way; inactive means flat fitted curve, though single readings scatter. Where the call is inconclusive, the potency comes from a doubtful curve fit.

experiment: qHTS screen for small molecules that inhibit ELG1-dependent DNA repair in human embryonic kidney (HEK293T) cells expressing luciferase-tagged ELG1; details: HEK293T ELG1-luciferase reporter, luminescence, 16 h, DNA damage induced by 5-fluorouridine; series mostly up to 46.1 µM; further: nearly all actives have a fitted effect of over 55% in size
Summary of the method: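 Reporter activity after DNA damage by 5-fluorouridine is monitored. Compound-treated cells incubate 16 hr at 37 °C, then ONE-Glo is added for 30 min before luminescence reading.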
Potency means the concentration at half of the fitted maximal effect.

Row | SMILES | Potency
1 | CCCCN(C(=O)c1c(C)noc1C)c1c(N)n(CCCC)c(=O)[nH]c1=O | inactive
2 | CC(C)(C)c1nnc(N/N=C/c2cc(Br)ccc2O)n(N)c1=O | inconclusive: 6.51 µM [inhibitor, partial curve, poor fit]
3 | CCC(=O)Nc1ccc(NC(=O)c2cc3ccccc3o2)cc1 | inconclusive: 14.6 µM [activator, partial curve]
4 | CCn1nc(C(=O)Nc2ccc(N3CCOCC3)cc2)c2ccccc2c1=O | inactive
5 | COCCCNC(=O)c1cn(C)c(=O)c2cc(OC)c(OC)cc12 | inactive
6 | CCOc1ccc(C(=O)CCC(=O)Nc2cc(C)ccn2)cc1 | inconclusive: 10.3 µM [activator, single point]
7 | CCc1ccc(OCC2c3cc(OC)c(OC)cc3CCN2C(C)=O)cc1 (stereo not given) | active: 6.51 µM
8 | COc1ccc2nc(N3CCN(C(=O)C4COc5ccccc5O4)CC3)sc2c1 (stereo not given) | inconclusive: 5.17 µM [activator, full curve]
9 | CCOC(=O)c1cc(-c2nnc(-c3ccc(Cl)cc3)o2)c(C)nc1C | inactive
10 | CCSc1nc(N)c2c3c(sc2n1)CCC3 | inconclusive: 20.6 µM [activator, partial curve]
11 | COc1ccc(CN2CCN(C3CCC3)CC2CCO)c(F)c1 (stereo not given) | inactive
12 | COCCN=c1scc(-c2cccs2)n1/N=C(\C)c1ccco1 | inconclusive: 16.4 µM [activator, partial curve]
13 | CCCCC[C@H]1CN(C2CCCCC2)C(=O)[C@@H]1CC(=O)NCc1ccccc1 | inactive
14 | Cc1c(OCc2ccc(C(=O)O)o2)ccc2c3c(c(=O)oc12)CCC3 | inconclusive: 29.1 µM [activator, single point]
15 | COc1cc2[nH]c(=O)c(C(=O)NCCCN3CCOCC3)c(O)c2cc1OC | inconclusive: 14.6 µM [activator, partial curve, poor fit]
16 | O=C(COC(=O)C1CCN(S(=O)(=O)c2cccc3cccnc23)CC1)c1ccccc1 | inactive
17 | Cc1cc(=O)oc2cc(NC(=O)c3ccccc3OC(F)F)ccc12 | inconclusive: 14.6 µM [activator, partial curve, poor fit]
18 | COCc1nnc(NC(=O)c2ccc(S(=O)(=O)N(C)C3CCCCC3)cc2)o1 | inactive
19 | CCOC(=O)N1CCN(C(=O)c2ccc(CNS(=O)(=O)c3ccc(OC)cc3)cc2)CC1 | inconclusive: 11.6 µM [inhibitor, partial curve, poor fit]
20 | O=C(NC(Cc1ccccc1)C(=O)N1CCCCCC1)c1ccccc1 (stereo not given) | inactive
21 | COC(=O)C1=CN(CCCN2CCCC2=O)C=C(C(=O)OC)C1c1ccccc1C(F)(F)F | inconclusive: 0.259 µM [activator, full curve, poor fit]
22 | COc1ccc(-c2nc(SCC(=O)N3CCCC3)n[nH]2)cc1 | inconclusive: 16.4 µM [activator, single point]
23 | COc1ccc(NC(=S)N2CCN(C/C=C/c3ccccc3)CC2)cc1 | inconclusive: 25.9 µM [inhibitor, single point]
24 | Cc1ccc2c(c1)c1c3n2CCN(C(=O)Cn2c(-c4ccccc4)noc2=O)C3CCC1 (stereo not given) | inconclusive: 4.11 µM [inhibitor, single point]

Row | SMILES | Potency
25 | O=C(O)c1cccc(S(=O)(=O)NNc2ccccc2C(F)(F)F)c1 | inconclusive: 32.6 µM [inhibitor, single point]
26 | CCO[C@H]1OC(C(=O)Nc2ccccc2)=C[C@@H](c2cn(C(C)=O)c3ccccc23)[C@@H]1CCCO | inconclusive: 29.1 µM [inhibitor, single point]
27 | CCn1cnc2c1c(=O)n(Cc1cccc(Br)c1)c(=O)n2Cc1ccccc1 | inconclusive: 32.6 µM [inhibitor, single point]
28 | CCCCCCCC(=O)OCC(=O)[C@@]1(O)CC[C@H]2[C@@H]3CCC4=CC(=O)CC[C@]4(C)[C@H]3[C@@H](O)C[C@@]21C | inconclusive: 0.259 µM [activator, full curve, poor fit]
29 | O=C1N[C@@H](Cc2c[nH]c3ccccc23)COC(=O)[C@@H](Cc2ccc(F)cc2)C/C=C\C[C@H]1CC(=O)N(CCO)Cc1ccccc1 | active: 18.3 µM
30 | Brc1ccc(COc2ncnc3ccccc23)cc1 | inactive
31 | Cc1ccc(C2=NNC(=Nc3ccc(F)cc3)SC2)cc1 | inactive
32 | COC(=O)c1c(Cl)c2n3ccccc3c(C)c(-c3ccccc3)c-2c1C(=O)OC | inconclusive: 29.1 µM [inhibitor, single point]
33 | O=C(CCl)NN1C(=O)NC(c2ccccc2)(c2ccccc2)C1=O | inconclusive: 20.6 µM [inhibitor, partial curve]
34 | O=C(Nc1ccccn1)c1ccc2c(c1)OCCO2 | inconclusive: 2.59 µM [activator, partial curve]
35 | COC(=O)C1(Cc2cc(-c3ccc(OC)cc3OC)no2)CCN(C(=O)OC(C)(C)C)CC1 | inconclusive: 29.1 µM [inhibitor, single point]
36 | O=C(Oc1ccc(-c2cnc3ccccc3n2)cc1)c1cccc([N+](=O)[O-])c1 | inconclusive: 5.8 µM [activator, full curve]
37 | COc1ccc(OCCN2CCN(C3CC(=O)N(CCC(C)C)C3=O)CC2)cc1 (stereo not given) | inconclusive: 10 µM [inhibitor, partial curve, poor fit]
38 | O=C1NC(=O)/C(=C\c2ccccc2OCc2ccccc2)S1 | inconclusive: 29.1 µM [inhibitor, single point]
39 | O=C(CSc1nncn1-c1cccnc1)Nc1cccc([N+](=O)[O-])c1 | inactive
40 | Cc1noc(C)c1S(=O)(=O)Nc1ccc2c(c1)C(=O)N([C@H](C)CO)C[C@H](C)[C@@H](CN(C)S(=O)(=O)c1ccccc1)O2 | inconclusive: 18.3 µM [inhibitor, partial curve]
41 | COc1ccc(S(=O)(=O)N2CCCCC2)cc1NC(=O)c1ccc([N+](=O)[O-])o1 | inconclusive: 6.51 µM [inhibitor, partial curve, poor fit]
42 | Cc1ccc(C2=Nn3c(COc4ccc(Cl)cc4)nnc3SC2CC(=O)O)cc1 (stereo not given) | inactive
43 | COc1cc(C2Nc3cccc4cccc(c34)N2)ccc1OC(C)=O | inactive
44 | CCOC(=O)c1c(-c2ccc(C)cc2)csc1NC(=O)c1cc2ccccc2oc1=O | inconclusive: 29.1 µM [inhibitor, single point]
45 | COc1cc(-c2noc(C)c2C(=O)NCCO)cc(OC)c1OC | inactive
46 | Nc1ncnc2c1ncn2[C@@H]1O[C@H](CNS(=O)(=O)CCCCl)[C@@H](O)[C@H]1O | inactive
47 | C[n+]1ccc(/C=C/c2c[nH]c3ccc(F)cc23)cc1 | inconclusive: 23.1 µM [inhibitor, partial curve, poor fit]
48 | CCN(C[C@H]1N[C@@](CC)(C(=O)OC)[C@H]2C(=O)N(C)C(=O)[C@@H]12)S(=O)(=O)c1ccc(F)cc1 | inactive

Row | SMILES | Potency
49 | COC(C(=O)Nc1ccc(Cl)cc1C)c1ccccc1 (stereo not given) | inactive
50 | COc1cc(C2Nc3ccccc3NC3=C2C(=O)CC(C)(C)C3)cc(OC)c1OC(C)=O (stereo not given) | inactive
51 | CSc1ccc(/C=C/C(=O)OCC(=O)NCC2CCCO2)cc1 (stereo not given) | inactive
52 | Cc1cc(=O)c2ccccc2s1 | inconclusive: 13 µM [activator, single point]
53 | CN(C(=O)COC(=O)c1ccc(Br)c(S(=O)(=O)N2CCOCC2)c1)C1CCCCC1 | inconclusive: 13 µM [inhibitor, partial curve]
54 | O=C(O)CCCCCNc1ccc2nsnc2c1[N+](=O)[O-] | inactive
55 | O=C(Nc1c2c(nc3ccccc13)CCCC2)c1ccccc1F | inactive
56 | CCc1ccc(-c2cc(N)n(-c3ccccc3)n2)cc1 | inconclusive: 4.11 µM [activator, partial curve]
57 | CCn1cc(Br)c(C(=O)Nc2ccc(C(=O)OC(C)C)cc2)n1 | inactive
58 | Cn1c(=O)c([N+](=O)[O-])c(NCC(O)c2ccccc2)c2ccccc21 (stereo not given) | inactive
59 | CC1(C)CC(NC(=O)c2cc([N+](=O)[O-])cc([N+](=O)[O-])c2)CC(C)(C)N1 | inconclusive: 32.6 µM [inhibitor, partial curve, poor fit]
60 | COc1ccc(NC2CCCN(Cc3cccc4cnccc34)C2)cc1 (stereo not given) | inactive
61 | CC1=NN(C(N)=S)C(=O)C1N=Nc1ccc(Cl)cc1 (stereo not given) | inconclusive: 12.6 µM [activator, partial curve]
62 | CCCCC(=O)Nc1nc(C)c(-c2csc(Nc3ccc(Cl)cc3)n2)s1 | active: 20.6 µM
63 | Clc1ccc2nc(CSc3ncn[nH]3)cn2c1 | inconclusive: 18.3 µM [activator, partial curve]
64 | COc1cc(C(=O)Nc2sc3c(c2C#N)CCN(C(C)=O)C3)cc(OC)c1OC | inactive
65 | O=C(NN=C1CCCCCCCCCCC1)c1ccncc1 | inconclusive: 20.6 µM [activator, partial curve, poor fit]
66 | COc1cccc(-c2nc(CS(=O)(=O)CC(=O)N3CCc4ccccc4C3)c(C)o2)c1 | inconclusive: 14.6 µM [inhibitor, partial curve]
67 | Cc1cc(NC(=O)c2cc(-c3ccc(C)c(C)c3)nc3ccccc23)no1 | inconclusive: 29.1 µM [inhibitor, single point]
68 | CCC1CCCCN1C(=O)CCCOc1ccccc1 (stereo not given) | inconclusive: 20.6 µM [activator, partial curve]
69 | O=C(c1ccco1)N1CCN(C(c2ccccc2Cl)c2nnnn2Cc2ccco2)CC1 (stereo not given) | inconclusive: 29.1 µM [inhibitor, single point]
70 | O=C(NCc1cccc(Cl)c1)c1ccc(CS(=O)Cc2ccc(Cl)cc2)o1 (stereo not given) | active: 13 µM

Copied from the list:
Entry of O=C(O)CCCCCNc1ccc2nsnc2c1[N+](=O)[O-] under Potency: inactive
Entry of Cc1cc(=O)c2ccccc2s1 under Potency: inconclusive: 13 µM [activator, single point]
Entry of COc1ccc(NC2CCCN(Cc3cccc4cnccc34)C2)cc1 (stereo not given) under Potency: inactive
Entry of Cn1c(=O)c([N+](=O)[O-])c(NCC(O)c2ccccc2)c2ccccc21 (stereo not given) under Potency: inactive
Entry of COc1cccc(-c2nc(CS(=O)(=O)CC(=O)N3CCc4ccccc4C3)c(C)o2)c1 under Potency: inconclusive: 14.6 µM [inhibitor, partial curve]
Entry of CCc1ccc(-c2cc(N)n(-c3ccccc3)n2)cc1 under Potency: inconclusive: 4.11 µM [activator, partial curve]
